≈ marks a conversion by molar mass, not a printed value.
System: F. varium KYA 8501
Assay: MIC, antibacterial spectrum (anaerobic bacteria)
Format: cell-based
Settings: Fusobacterium varium, KYA8501

O=C(O)c1cn(C2CC2)c2cc(N3CCNCC3)c(F)cc2c1=O [CPFX, Ciprofloxacin, reference compound]
MIC: 25 µg/mL (≈ 75.4 µM)

Source: EP0221541A2, “Quinolonecarboxylic acid derivatives and their preparation” (KYORIN PHARMACEUTICAL CO., LTD., priority 1985, dated 1987)
